Laboratory results as given in PMC6294507.
Like-named read-outs stand apart in the source and are kept apart here. These are yes or no findings as the source states them, for the method shown. In cells and extracts the contact can be indirect. A yes stands for co-enrichment or nearness to the bait. Other partners may have been found. For some of these results: Sequences can lack the tags named with a protein.

Sequences of proteins named here, by UniProt entry; tags and fusion partners are left off. A change or cut given only in a name is not applied to a line headed by its entry. Residues count along the entry.
UniProt Q9BRJ7: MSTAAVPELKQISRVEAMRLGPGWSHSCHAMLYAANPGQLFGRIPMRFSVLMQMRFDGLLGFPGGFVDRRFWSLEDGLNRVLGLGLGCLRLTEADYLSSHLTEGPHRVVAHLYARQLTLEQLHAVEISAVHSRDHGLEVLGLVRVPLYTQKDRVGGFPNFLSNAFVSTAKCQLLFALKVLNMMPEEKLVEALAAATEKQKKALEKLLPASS
SDOS-eGFP: residues 6-211 of Q9BRJ7
UniProt P08238: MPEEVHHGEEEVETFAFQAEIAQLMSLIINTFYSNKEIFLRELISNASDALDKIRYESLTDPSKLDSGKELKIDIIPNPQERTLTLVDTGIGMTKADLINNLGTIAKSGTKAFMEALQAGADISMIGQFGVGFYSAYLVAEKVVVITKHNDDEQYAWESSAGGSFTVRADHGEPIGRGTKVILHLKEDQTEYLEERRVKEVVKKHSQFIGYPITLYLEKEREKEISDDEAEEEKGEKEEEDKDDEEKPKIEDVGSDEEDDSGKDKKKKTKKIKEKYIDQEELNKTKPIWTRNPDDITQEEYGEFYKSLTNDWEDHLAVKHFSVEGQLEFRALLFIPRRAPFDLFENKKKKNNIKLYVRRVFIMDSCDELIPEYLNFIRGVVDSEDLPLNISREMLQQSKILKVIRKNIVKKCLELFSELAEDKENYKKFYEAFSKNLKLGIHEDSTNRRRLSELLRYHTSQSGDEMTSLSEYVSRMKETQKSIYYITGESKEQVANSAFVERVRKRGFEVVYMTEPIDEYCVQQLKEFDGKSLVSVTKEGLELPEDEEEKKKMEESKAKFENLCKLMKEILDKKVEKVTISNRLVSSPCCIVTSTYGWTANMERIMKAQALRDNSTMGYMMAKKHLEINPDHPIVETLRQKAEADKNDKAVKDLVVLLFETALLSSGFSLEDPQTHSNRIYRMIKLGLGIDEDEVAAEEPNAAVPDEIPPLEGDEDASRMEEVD
UniProt P16401: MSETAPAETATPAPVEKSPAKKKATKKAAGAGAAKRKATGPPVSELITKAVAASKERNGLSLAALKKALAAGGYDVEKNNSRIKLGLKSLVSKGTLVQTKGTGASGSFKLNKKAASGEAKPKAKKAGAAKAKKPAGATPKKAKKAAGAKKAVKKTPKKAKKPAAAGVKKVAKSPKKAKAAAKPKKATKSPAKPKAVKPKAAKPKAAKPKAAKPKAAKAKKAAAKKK

T1: TRAP1-eGFP (human) (UniProt Q12931)
T1 sequence: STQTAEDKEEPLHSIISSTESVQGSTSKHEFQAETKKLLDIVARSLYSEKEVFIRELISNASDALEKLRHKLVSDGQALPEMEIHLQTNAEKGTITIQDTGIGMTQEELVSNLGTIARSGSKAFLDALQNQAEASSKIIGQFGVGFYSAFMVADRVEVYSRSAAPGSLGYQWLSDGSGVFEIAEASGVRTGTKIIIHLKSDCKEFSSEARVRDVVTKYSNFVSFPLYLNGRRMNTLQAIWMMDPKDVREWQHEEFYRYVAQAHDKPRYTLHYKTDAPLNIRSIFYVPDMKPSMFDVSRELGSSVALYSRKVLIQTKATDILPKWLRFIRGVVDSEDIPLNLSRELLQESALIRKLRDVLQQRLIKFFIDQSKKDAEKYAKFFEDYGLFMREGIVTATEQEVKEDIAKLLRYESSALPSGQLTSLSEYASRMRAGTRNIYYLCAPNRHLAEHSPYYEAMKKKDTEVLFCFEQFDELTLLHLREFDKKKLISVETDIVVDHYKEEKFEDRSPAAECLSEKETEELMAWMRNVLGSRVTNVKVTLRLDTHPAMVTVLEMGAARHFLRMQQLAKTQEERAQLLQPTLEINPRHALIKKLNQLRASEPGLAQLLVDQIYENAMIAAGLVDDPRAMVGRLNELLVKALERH

B1: Growth hormone-inducible transmembrane protein (protein, UniProt Q9H3K2 46-345)
chain: ATKTRIGIRRGRTGQELKEAALEPSMEKIFKIDQMGRWFVAGGAAVGLGALCYYGLGLSNEIGAIEKAVIWPQYVKDRIHSTYMYLAGSIGLTALSAIAISRTPVLMNFMMRGSWVTIGVTFAAMVGAGMLVRSIPYDQSPGPKHLAWLLHSGVMGAVVAPLTILGGPLLIRAAWYTAGIVGGLSTVAMCAPSEKFLNMGAPLGVGLGLVFVSSLGSMFLPPTTVAGATLYSVAMYGGLVLFSMFLLYDTQKVIKRAEVSPMYGVQKYDPINSMLSIYMDTLNIFMRVATMLATGGNRKK
B2: Macrophage migration inhibitory factor (protein, UniProt P14174 1-115)
chain: MPMFIVNTNVPRASVPDGFLSELTQQLAQATGKPPQYIAVHVVPDQLMAFGGSSEPCALCSLHSIGKIGGAQNRSYSKLLCGLLAERLRISPDRVYINYYDMNAANVGWNNSTFA
B3: Mitochondrial import receptor subunit TOM40 homolog (protein, UniProt O96008 1-361)
chain: MGNVLAASSPPAGPPPPPAPALVGLPPPPPSPPGFTLPPLGGSLGAGTSTSRSSERTPGAATASASGAAEDGACGCLPNPGTFEECHRKCKELFPIQMEGVKLTVNKGLSNHFQVNHTVALSTIGESNYHFGVTYVGTKQLSPTEAFPVLVGDMDNSGSLNAQVIHQLGPGLRSKMAIQTQQSKFVNWQVDGEYRGSDFTAAVTLGNPDVLVGSGILVAHYLQSITPCLALGGELVYHRRPGEEGTVMSLAGKYTLNNWLATVTLGQAGMHATYYHKASDQLQVGVEFEASTRMQDTSVSFGYQLDLPKANLLFKGSVDSNWIVGATLEKKLPPLPLTLALGAFLNHRKNKFQCGFGLTIG
B4: Acetyl-CoA acetyltransferase, mitochondrial (enzyme, UniProt P24752 34-427)
chain: VSKPTLKEVVIVSATRTPIGSFLGSLSLLPATKLGSIAIQGAIEKAGIPKEEVKEAYMGNVLQGGEGQAPTRQAVLGAGLPISTPCTTINKVCASGMKAIMMASQSLMCGHQDVMVAGGMESMSNVPYVMNRGSTPYGGVKLEDLIVKDGLTDVYNKIHMGSCAENTAKKLNIARNEQDAYAINSYTRSKAAWEAGKFGNEVIPVTVTVKGQPDVVVKEDEEYKRVDFSKVPKLKTVFQKENGTVTAANASTLNDGAAALVLMTADAAKRLNVTPLARIVAFADAAVEPIDFPIAPVYAASMVLKDVGLKKEDIAMWEVNEAFSLVVLANIKMLEIDPQKVNINGGAVSLGHPIGMSGARIVGHLTHALKQGEYGLASICNGGGGASAMLIQKL
B5: Carbamoyl-phosphate synthase [ammonia], mitochondrial (enzyme, UniProt P31327 39-1500)
chain: LSVKAQTAHIVLEDGTKMKGYSFGHPSSVAGEVVFNTGLGGYPEAITDPAYKGQILTMANPIIGNGGAPDTTALDELGLSKYLESNGIKVSGLLVLDYSKDYNHWLATKSLGQWLQEEKVPAIYGVDTRMLTKIIRDKGTMLGKIEFEGQPVDFVDPNKQNLIAEVSTKDVKVYGKGNPTKVVAVDCGIKNNVIRLLVKRGAEVHLVPWNHDFTKMEYDGILIAGGPGNPALAEPLIQNVRKILESDRKEPLFGISTGNLITGLAAGAKTYKMSMANRGQNQPVLNITNKQAFITAQNHGYALDNTLPAGWKPLFVNVNDQTNEGIMHESKPFFAVQFHPEVTPGPIDTEYLFDSFFSLIKKGKATTITSVLPKPALVASRVEVSKVLILGSGGLSIGQAGEFDYSGSQAVKAMKEENVKTVLMNPNIASVQTNEVGLKQADTVYFLPITPQFVTEVIKAEQPDGLILGMGGQTALNCGVELFKRGVLKEYGVKVLGTSVESIMATEDRQLFSDKLNEINEKIAPSFAVESIEDALKAADTIGYPVMIRSAYALGGLGSGICPNRETLMDLSTKAFAMTNQILVEKSVTGWKEIEYEVVRDADDNCVTVCNMENVDAMGVHTGDSVVVAPAQTLSNAEFQMLRRTSINVVRHLGIVGECNIQFALHPTSMEYCIIEVNARLSRSSALASKATGYPLAFIAAKIALGIPLPEIKNVVSGKTSACFEPSLDYMVTKIPRWDLDRFHGTSSRIGSSMKSVGEVMAIGRTFEESFQKALRMCHPSIEGFTPRLPMNKEWPSNLDLRKELSEPSSTRIYAIAKAIDDNMSLDEIEKLTYIDKWFLYKMRDILNMEKTLKGLNSESMTEETLKRAKEIGFSDKQISKCLGLTEAQTRELRLKKNIHPWVKQIDTLAAEYPSVTNYLYVTYNGQEHDVNFDDHGMMVLGCGPYHIGSSVEFDWCAVSSIRTLRQLGKKTVVVNCNPETVSTDFDECDKLYFEELSLERILDIYHQEACGGCIISVGGQIPNNLAVPLYKNGVKIMGTSPLQIDRAEDRSIFSAVLDELKVAQAPWKAVNTLNEALEFAKSVDYPCLLRPSYVLSGSAMNVVFSEDEMKKFLEEATRVSQEHPVVLTKFVEGAREVEMDAVGKDGRVISHAISEHVEDAGVHSGDATLMLPTQTISQGAIEKVKDATRKIAKAFAISGPFNVQFLVKGNDVLVIECNLRASRSFPFVSKTLGVDFIDVATKVMIGENVDEKHLPTLDHPIIPADYVAIKAPMFSWPRLRDADPILRCEMASTGEVACFGEGIHTAFLKAMLSTGFKIPQKGILIGIQQSFRPRFLGVAEQLHNEGFKLFATEATSDWLNANNVPATPVAWPSQEGQNPSLSSIRKLIRDGSIDLVINLPNNNTKFVHDNYVIRRTAVDSGIPLLTNFQVTKLFAEAVQKSRKVDSKSLFHYRQYSAGKAA
B6: Polymerase delta-interacting protein 2 (protein, UniProt Q9Y2S7 52-368)
chain: SSRNRPEGKVLETVGVFEVPKQNGKYETGQLFLHSIFGYRGVVLFPWQARLYDRDVASAAPEKAENPAGHGSKEVKGKTHTYYQVLIDARDCPHISQRSQTEAVTFLANHDDSRALYAIPGLDYVSHEDILPYTSTDQVPIQHELFERFLLYDQTKAPPFVARETLRAWQEKNHPWLELSDVHRETTENIRVTVIPFYMGMREAQNSHVYWWRYCIRLENLDSDVVQLRERHWRIFSLSGTLETVRGRGVVGREPVLSKEQPAFQYSSHVSLQASSGHMWGTFRFERPDGSHFDVRIPPFSLESNKDEKTPPSGLHW

Experiments:
Test in all cases: affinity purification with mass spectrometry; eGFP-fusion proteins captured from HeLa Flp In TRex lysates on GFP-Trap agarose beads, 2 h, 4 C; lysis buffer 150 mM NaCl, 10 mM Tris-HCl pH 7.5, 1% Triton X-100, 5 mM MgCl2, 5 mM DTT; RNase A during the second wash; label-free quantitative proteomics against unfused eGFP
[1] = target: T1, TRAP1-eGFP (human)
[2] = target: T1, TRAP1-eGFP (human); remark: listed apart in the source
[3] = target: SDOS-eGFP (human) (UniProt Q9BRJ7)

| Molecule | binding [1] | binding [2] | binding [3] |
| --- | --- | --- | --- |
| Heat shock protein HSP 90-beta (from UniProt P08238 1-724) | binds |  |  |
| Histone H1.5 (from UniProt P16401 1-226) | binds |  |  |
| Protein syndesmos (endogenous SDOS) (from UniProt Q9BRJ7 1-211) | binds |  |  |
| B1 |  | binds |  |
| B2 |  | binds | binds |
| B3 |  | binds | binds |
| B4 |  | binds |  |
| B5 |  | binds | binds |
| B6 |  | binds | binds |
